According to patent US20170320960A1:
Where a chain is given by its changes, count along the chain named. Results are given in words; binding and its absence hold for the method and conditions named. For some of these results: Binding can be weak; no strength is given. Each block holds one binder with its values, some of them ahead of it.

Assays:
[1] = target: rMFI2-His (extracellular domain of rat MFI2 with Histidine tag) (rat); test: bio-layer interferometry (ForteBio RED): antibody on anti-mouse Fc sensor, 300 nM rMFI2-His
[2] = target: rMFI2-His (extracellular domain of rat MFI2 with Histidine tag) (rat); test: bio-layer interferometry (ForteBio RED): antibody on anti-mouse Fc sensor, rMFI2-His in solution

B1: SC57.46 (antibody, V domains shown)
VH: QVQLKESGPGLVAPSQSLSITCTVSGFSLTSYGVHWVRQPPGKGLEWLGIIWAGGTTNYNSALMSRLSIRKDNSKSQVFLKMNSLQTDDTAMYYCARDRGYDGYFDYAVDYWGQGTSVTVSS
VL: DIQMTQSPPSLSASVGETVTITCRTSENIYSYLTWYQQKQGKSPQLLVYNAKTLAEGVPSRFSGSGSGTQFSLKINSLQPEDFGSYYCQHHYGTPLTFGAGTKLELK
binding [1]: binds

B3: SC57.9 (antibody, V domains shown)
VH: QVQLQQSGPELMKPGASVKISCKATGYTFSSYWIEWVKQRPGHGLEWIGEILPGSGSTEYNEKFKGKATFTADTSSNTAYMQLSSLTSEDSDVYYCARKRYGTMDYWGQGTSVTVSS
VL: QIVLTQSPAIMSASPGEKVTITCSASSSVSYMHWFQQKPGTSPKLWIYTTSNLASGVPARFSGSGSGTSYSLTISRMEAEDAATYYCQQRSSFPPTFGSGTKLEIK
binding [2]: no binding (tested: 300 nM)

B4: SC57.17 (antibody, V domains shown)
VH: EVQLQQSGAELVKPGASVKLSCTASGFNIKDTYMHWVKQRPEQGLEWIGRIDPANVNTSDDPKFQGKATIAADTSSNTVYLQLSSLTSEDTAVYYCARDYRYDGYYYAMDYWGQGTSVTVSS
VL: DIQMTQTTSSLSASLGDRVTISCSASQDINNYLNWYQQKPDGTVKLLIHYTSSLHSGVPSRFSGSGSGTDYSLTISNLEPEDIATYYCQQYSKVPWTFGGGTKLEIK
binding [2]: no binding (tested: 300 nM)

B5: SC57.6 (antibody, V domains shown)
VH: GVQVVESGGGVVQPGGSLKLSCAASGFTFSSYAMSWVRQTPEKRLEWVAYLSRGGGSTYYLDTVKGRFTISRDNAKNTLYLQMNSLKSEDTAMYYCARLDGYNWYFDVWGAGTPVTVSS
VL: DIVMSQSPSSLAVSAGEKVTMSCKSSQSLLHSRIRKNYLAWYQQKPGQSPKLLIYWASTRESGVPDRFTGSGSGTDFTLTISSVQAEDLAVYYCKQSYNLFTFGGGTKLEIK
binding [2]: no binding (tested: 300 nM)

B6: SC57.48 (antibody, V domains shown)
VH: B5 VH
VL: B5 VL
binding [2]: no binding (tested: 300 nM)

B10: SC57.53 (antibody, V domains shown)
VH: QVHLKESGPGLVAPSQSLSITCTVSGFSLTTYGVHWVRQPPGKGLEWLGVIWAGGSTKYNSAFMSRLSISKDNSKTQVLLKMNSLQTDDTAMYYCARVASHGSSSWFAYWGQGTLVTVSA
VL: DIVLTQSPATLSVTPGDSVSLSCRASQSVGNSLHWYQQKSHESPRLLIKYASQSISGIPSRFSGSGSGTDFTLSINSVETEDFGMYFCQQSDSWPLTFGTGTKLELK
binding [2]: no binding (tested: 300 nM)

B11: SC57.57 (antibody, V domains shown)
VH: B10 VH
VL: B10 VL
binding [2]: no binding (tested: 300 nM)

B12: SC57.1 (antibody, V domains shown)
VH: QVQLKQSGPGLVQPSQSLSITCTVSGFSLTDYGVHWVRQSPGKGLDWLGVIWSGGNTDYNAAFISRLSISKDNSKSQIFFEMNSLQDTDTAIYYCARQLHYYGPFAYWGQGTLVTVSA
VL: QIVLTQSPAIMSASPGEKVTMTCSASSSVSYMHWYQQKSGTSPKRWIYDTSKLASGVPVRFSGSGSGTSYSLTISSIEADDAATYYCQQWSRTPPTFGGGTKLEIK
binding [2]: no binding (tested: 300 nM)

B13: SC57.2 (antibody, V domains shown)
VH: B12 VH
VL: B12 VL
binding [2]: no binding (tested: 300 nM)

Now from value to binder:

binding [2]: no binding (tested: 300 nM)
B2: SC57.27 (antibody, V domains shown)
VH: ELKLVESGGDLVKPGGSLKLSCAASGFSFNNYAMSWVRQTPEKRLEWVASISSGGTTFYPDSVKGRFTMSRDHARNILYLQMNSLRSEDTAMYYCVRGQWLSLYSMDYWGQGTSVTVSS
VL: B1 VL with P9V, T25A, N28I, T34A, S85T, T94V, L96V

binding [2]: no binding (tested: 300 nM)
B7: SC57.7 (antibody, V domains shown)
VH: B5 VH
VL: B5 VL

binding [1]: binds
B8: SC57.5 (antibody, V domains shown)
VH: EVQLQQSGPELVKPGASVKISCKASGYSFTDYYLHWVKQSHVKSLEWIGRINPYNGATSYNQIFKDKASLTVDKSSSTAYMDLHSLTSEDSAVYYCARGGDYDFPWYWGQGTTLTVSP
VL: DIVMTQSHKFMSTSVGDRVSITCKASQDVYAAVAWYHQKPGQSPKLLIYWASTRHAGVPDRFTGSGSGTDYTLTISSVQAEDLALYYCQQHYRTPWTFGGGTKLEIK

binding [2]: no binding (tested: 300 nM)
B9: SC57.31 (antibody, V domains shown)
VH: B10 VH
VL: B10 VL
